Measurements reported in article PMC10750215.
Results are given in words; binding and its absence hold for the method and conditions named. Binding seen in cells or lysates may run through a third protein. Here binding means that the protein was enriched with, or labelled near, the bait; the list need not be complete. Tags and fused reporters may be left off the sequences shown.

The chains behind the UniProt entries cited, without tags or fusion partners.
UniProt Q15672: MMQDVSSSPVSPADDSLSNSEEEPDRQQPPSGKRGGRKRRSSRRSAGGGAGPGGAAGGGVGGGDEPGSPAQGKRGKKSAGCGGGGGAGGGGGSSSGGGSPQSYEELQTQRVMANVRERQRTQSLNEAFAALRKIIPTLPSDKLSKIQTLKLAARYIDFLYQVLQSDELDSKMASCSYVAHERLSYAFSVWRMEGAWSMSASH
UniProt P25490: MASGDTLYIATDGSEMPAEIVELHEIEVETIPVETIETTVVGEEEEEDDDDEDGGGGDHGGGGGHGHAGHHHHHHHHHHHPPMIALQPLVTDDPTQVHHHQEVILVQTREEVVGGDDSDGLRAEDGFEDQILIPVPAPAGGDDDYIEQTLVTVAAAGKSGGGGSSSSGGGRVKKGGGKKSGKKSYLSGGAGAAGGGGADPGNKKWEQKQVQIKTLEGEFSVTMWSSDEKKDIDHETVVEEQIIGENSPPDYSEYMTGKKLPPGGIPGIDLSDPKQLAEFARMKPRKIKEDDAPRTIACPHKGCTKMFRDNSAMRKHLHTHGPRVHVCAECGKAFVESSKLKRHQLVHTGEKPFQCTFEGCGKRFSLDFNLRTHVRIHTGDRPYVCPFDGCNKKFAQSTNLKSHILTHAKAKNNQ

Tests used:
[1] = target: T1, FLAG-VDBP (vitamin D binding protein, overexpressed) (UniProt P02774); test: affinity purification with mass spectrometry; FLAG-VDBP pull-down from the lysate of MHCC-97H cells overexpressing VDBP, Matrigel 3D culture; silver staining and MS analysis
T1 sequence: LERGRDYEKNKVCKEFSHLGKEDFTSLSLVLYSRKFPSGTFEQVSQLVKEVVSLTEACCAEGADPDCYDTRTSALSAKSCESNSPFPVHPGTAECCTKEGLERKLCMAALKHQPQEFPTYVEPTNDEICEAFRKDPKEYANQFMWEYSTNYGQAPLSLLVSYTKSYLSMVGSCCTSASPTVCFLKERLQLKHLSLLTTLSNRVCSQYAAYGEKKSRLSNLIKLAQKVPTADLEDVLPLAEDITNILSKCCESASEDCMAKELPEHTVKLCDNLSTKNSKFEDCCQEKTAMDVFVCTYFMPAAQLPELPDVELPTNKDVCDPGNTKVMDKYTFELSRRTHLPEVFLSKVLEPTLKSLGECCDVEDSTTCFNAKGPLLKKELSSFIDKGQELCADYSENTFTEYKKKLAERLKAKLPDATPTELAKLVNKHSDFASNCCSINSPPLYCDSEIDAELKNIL

[2] = target: T2, Flag-VDR (vitamin D receptor, overexpressed) (UniProt P11473); test: affinity purification with mass spectrometry; Flag-VDR pull-down from the nuclear lysate of MHCC-97H cells; silver staining and MS analysis
T2 sequence: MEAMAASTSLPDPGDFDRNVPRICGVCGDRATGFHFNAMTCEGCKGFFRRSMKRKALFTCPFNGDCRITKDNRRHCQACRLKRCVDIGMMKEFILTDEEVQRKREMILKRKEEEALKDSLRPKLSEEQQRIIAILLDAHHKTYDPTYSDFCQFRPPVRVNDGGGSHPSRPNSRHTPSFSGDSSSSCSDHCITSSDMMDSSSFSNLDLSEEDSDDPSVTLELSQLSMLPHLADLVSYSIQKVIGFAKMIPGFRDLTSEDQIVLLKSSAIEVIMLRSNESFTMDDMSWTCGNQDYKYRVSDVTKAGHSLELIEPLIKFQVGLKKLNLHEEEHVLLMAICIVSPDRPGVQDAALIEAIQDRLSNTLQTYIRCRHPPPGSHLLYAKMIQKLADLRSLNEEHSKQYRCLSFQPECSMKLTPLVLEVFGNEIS

| Substance | binding [1] | binding [2] |
| --- | --- | --- |
| Twist1 (from UniProt Q15672 1-202) | binds | – |
| Yin Yang 1 (YY1) (from UniProt P25490 1-414) | – | binds |
